{"source": "PubChem BioAssay AID652259 (Drosophila RNAi Screening Center, 2013)", "purpose": "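Genome-wide hunt for genes that control Wingless pathway activity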 (primary screen)", "cells": "Drosophila clone 8 imaginal disc epithelial cells", "reagents": "long dsRNA against Drosophila genes", "conditions": "pathway stimulated by co-transfected Wingless expression plasmid", "read-out": "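Dual luciferase reads per well after Wingless plasmid stimulation: reporter firefly light and Renilla control light; activity is firefly divided by Renilla, a ratio not deposited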", "reading the numbers": "firefly reporter light: higher = more Wg reporter light, before normalisation; Renilla control light: higher = more transfected or surviving cells", "call rule": "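a knock-down is a candidate when at least two out of four statistical tests show it departing from its plate mean; one test alone signals a weak candidate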", "meaning of the calls": "active = candidate regulator (raises or lowers reporter); inactive = not a candidate", "note": "In all, the deposit lists about 22,000 reagents; this is an unselected part of those with a known target gene and a result. In the full data, 233 (1.1%) got an active call. 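Light values are raw, unnormalised plate reads; the ratio scores behind the reporter calls were not deposited.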 Reagents against one gene are numbered here. The record does not give: the amount of reagent, the time to read-out, the dose of the treatment."}
The opening 2 records, ahead of the listing:
{"Gene":"Dscam2 (Down syndrome cell adhesion molecule 2)","reagent no.":1,"firefly reporter light, replicate 1":4747,"Renilla control light, replicate 1":2231,"Outcome":"inactive"}
{"Gene":"Dscam2 (Down syndrome cell adhesion molecule 2)","reagent no.":2,"firefly reporter light, replicate 1":1889,"firefly reporter light, replicate 2":7287,"Renilla control light, replicate 1":1652,"Renilla control light, replicate 2":3064,"Outcome":"inactive"}

The listing, from the first entry:
{"Gene":"Dscam2 (Down syndrome cell adhesion molecule 2)","reagent no.":1,"firefly reporter light, replicate 1":4747,"Renilla control light, replicate 1":2231,"Outcome":"inactive"}
{"Gene":"Dscam2 (Down syndrome cell adhesion molecule 2)","reagent no.":2,"firefly reporter light, replicate 1":1889,"firefly reporter light, replicate 2":7287,"Renilla control light, replicate 1":1652,"Renilla control light, replicate 2":3064,"Outcome":"inactive"}
{"Gene":"Dscam2 (Down syndrome cell adhesion molecule 2)","reagent no.":3,"firefly reporter light, replicate 1":1376,"firefly reporter light, replicate 2":5654,"Renilla control light, replicate 1":336,"Renilla control light, replicate 2":555,"Outcome":"inactive"}
{"Gene":"Dscam2 (Down syndrome cell adhesion molecule 2)","reagent no.":4,"firefly reporter light, replicate 1":1568,"firefly reporter light, replicate 2":5559,"Renilla control light, replicate 1":1312,"Renilla control light, replicate 2":2356,"Outcome":"inactive"}
{"Gene":"Dscam2 (Down syndrome cell adhesion molecule 2)","reagent no.":5,"firefly reporter light, replicate 1":1004,"firefly reporter light, replicate 2":9616,"Renilla control light, replicate 1":1052,"Renilla control light, replicate 2":3942,"Outcome":"inactive"}
{"Gene":"Dscam2 (Down syndrome cell adhesion molecule 2)","reagent no.":6,"firefly reporter light, replicate 1":6.07e5,"firefly reporter light, replicate 2":6.36e5,"Renilla control light, replicate 1":1.97e5,"Renilla control light, replicate 2":1.85e5,"Outcome":"inactive"}
{"Gene":"CG12420","reagent no.":1,"firefly reporter light, replicate 1":20445,"Renilla control light, replicate 1":5992,"Outcome":"inactive"}
{"Gene":"CG13243","reagent no.":1,"firefly reporter light, replicate 1":4624,"firefly reporter light, replicate 2":9445,"Renilla control light, replicate 1":1025,"Renilla control light, replicate 2":2465,"Outcome":"inactive"}
{"Gene":"Snp (Snipper)","reagent no.":1,"firefly reporter light, replicate 1":2578,"firefly reporter light, replicate 2":5605,"Renilla control light, replicate 1":659,"Renilla control light, replicate 2":2344,"Outcome":"inactive"}
{"Gene":"Snp (Snipper)","reagent no.":2,"firefly reporter light, replicate 1":5.05e5,"firefly reporter light, replicate 2":4.22e5,"Renilla control light, replicate 1":2.52e5,"Renilla control light, replicate 2":2.06e5,"Outcome":"inactive"}
{"Gene":"CG14118","reagent no.":1,"firefly reporter light, replicate 1":6290,"Renilla control light, replicate 1":1856,"Outcome":"inactive"}
{"Gene":"Lcp65Ac","reagent no.":1,"firefly reporter light, replicate 1":1161,"firefly reporter light, replicate 2":9188,"Renilla control light, replicate 1":1227,"Renilla control light, replicate 2":3660,"Outcome":"inactive"}
